From patent US20090137424A1 come the findings set out here.

For the test, the target named is streptavidin (streptavidin coated microtiter plates, Pierce) (UniProt P22629). Put plainly: phage ELISA, streptavidin coated plates, anti-M13 HRP detection, OD492. (An ELISA detects its analyte on a solid surface through an enzyme-linked reagent.)

No constants are given. Whether binding was seen depends on the method and setting. Some binding calls cover weakened binding; strength is not graded here. Tags and fused reporters may be left off the sequences shown.

B1: M13KE-SBP phage prepared in E. coli XL1-Blue (streptavidin binding peptide with glutamine at residue X, fused to pIII) (peptide, not shown: large carriers)
chain: AGQTLLAHPQ
For the molecule B1, the binding entry is reported as “binds”.
